PubChem BioAssay AID743454 | Peter MacCallum Cancer Centre – 2014
Shown is an unselected part of about 18,000 reagents tested. In the full data, 450 (2.5%) got an active call. 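Single biological run; no consistent viability z cut-off exists, so the class columns, not z-scores, define the calls.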

Test: 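Search for knock-downs that restore vorinostat killing in resistant colon cancer cells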 (primary screen)
Cell system: human HCT116-VR colon cancer cells, selected for vorinostat resistance
Reagents: siRNA pool against human genes, 40 nM siRNA pool
Time to read-out: vorinostat for 24 h, read-out about 72 h after transfection
Treatment: vorinostat at 2.5 µM final
Detection: 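Cell viability by CellTiter-Fluor and caspase 3/7 activity by luminescence, each scaled to mock wells per plate, duplicates averaged, then robust z-scored over all plates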
Reading the numbers: viability robust z-score: higher = more viable cells than screen typical; caspase robust z-score: higher = more caspase 3/7 activity than screen typical
Call rule: 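a knock-down is a hit when classed RV1 or RV2 for lowered viability, or CA1 or CA2 for caspase activation; those lethal without drug were dropped; hits were retested singly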

Gene,PubChem SID,viability hit class,caspase hit class,viability robust z-score,caspase robust z-score,call
CLDN19,SID134320233,no change,no change,1.28,0,inactive
SUMF2,SID135621981,no change,no change,1.03,0.16,inactive
ATXN7L1,SID152149367,no change,no change,1.73,1.44,inactive
ZBTB22,SID134319841,no change,no change,-1.14,2.75,inactive
MLXIP,SID152154668,no change,no change,0.32,-0.98,inactive
NUCKS1,SID152150801,no change,no change,0.56,-0.32,inactive
FBXW4,SID152151215,no change,no change,-0.99,-0.07,inactive
PRIMPOL,SID134320780,no change,no change,0.99,-0.13,inactive
RBM19,SID135624122,no change,no change,-1.55,-0.12,inactive
PRKACG,SID56478826,no change,no change,0.6,-0.12,inactive
CD34,SID152147082,no change,no change,-0.8,-0.26,inactive
CAB39L,SID135622795,no change,no change,-0.18,0.52,inactive
SDF4,SID134319350,no change,no change,-0.62,2.15,inactive
ATP5PO,SID134323280,no change,no change,0.44,-0.22,inactive
HOXA9,SID152154243,no change,no change,0.4,0.4,inactive
PIGS,SID134317914,no change,no change,-0.21,-0.62,inactive
C6orf120,SID135625271,no change,no change,0.97,-0.22,inactive
ANKRD9,SID152156615,no change,no change,0.3,-0.28,inactive
VAMP8,SID135622548,no change,no change,-0.18,-1.12,inactive
DUS2,SID152156208,no change,no change,0.27,3.34,inactive
PDK3,SID152151041,no change,no change,-0.08,0.7,inactive
ARHGAP29,SID152151810,no change,no change,2.16,0.78,inactive
TTI2,SID135622772,no change,no change,0.4,-0.57,inactive
KSR1,SID152156641,no change,no change,-1.69,-0.24,inactive
NEB,SID135622216,no change,no change,0.76,-0.4,inactive
PTGS1,SID134310518,no change,no change,-0.73,0.72,inactive
SAMHD1,SID134318144,no change,no change,0.18,0.45,inactive
ABCF1,SID152155092,no change,no change,-1.64,-1.02,inactive
DENND5A,SID134326642,no change,no change,1.95,0.93,inactive
ESRP1,SID152148501,no change,no change,2.15,1.4,inactive
ZFP69,SID152153734,no change,no change,0.54,-0.88,inactive
RRAD,SID134312739,no change,no change,-1.79,1.02,inactive
SLC25A52,SID152148152,no change,no change,-0.84,1.26,inactive
PSD4,SID135623883,no change,no change,-0.54,-1.38,inactive
ACTR2,SID152153506,no change,no change,1.25,-0.32,inactive
SLC43A1,SID134312624,no change,no change,1.61,3.52,inactive
AIDA,SID152147535,no change,no change,1.14,-0.5,inactive
CALHM5,SID152149745,no change,no change,-0.92,0.78,inactive
RGCC,SID152150660,no change,no change,-0.48,0.52,inactive

Only “caspase robust z-score”, for 4 of the entries above:
KSR1 [SID152156641]: -0.24
NEB [SID135622216]: -0.4
PTGS1 [SID134310518]: 0.72
SAMHD1 [SID134318144]: 0.45
